Measured values: PubChem BioAssay AID2685 (National Center for Advancing Translational Sciences (NCATS), 2010)
This is one part of the list. These are further read-outs of the screen, such as a control signal, another cell line or another target. No call is given for them. Most of these compounds were active or inconclusive in the main read-out, so they are no random draw. Potencies come from curve fits of mixed quality, noted in brackets.

Test: qHTS Assay for Lipid Storage Modulators in Drosophila S3 Cells;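 as to cell number change: cells counted by Cell Tracker Red CMTPX staining in the red channel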
Settings: BODIPY lipid droplet fluorescence, 18-24 h; for cell number change: measured here: cell count max response, cells fed with added oleic acid
Summary of the method: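 Drosophila S3 cells got compounds at several concentrations plus oleic acid (400 uM solution). Laser-scanning cytometry with 488 nm excitation read lipid droplets at 500-530 nm and cells at 575-640 nm. Percent activity was relative to 20 uM Triacsin C.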

[1] = measured here: lipid fluorescence (Fed channel) AC50, cells fed with added oleic acid
[2] = measured here: cell number channel AC50, cells fed with added oleic acid

Row | SMILES | cell number change | AC50 [1] | AC50 [2]
1 | CCSc1nnc(NC(=O)c2ccccc2)s1 | 34.3% | 0.92 µM [rising, full curve, poor fit] | –
2 | O=C(c1cnc2sccn2c1=O)N1CCN(c2ccccc2Cl)CC1 | 4.7% | – | 0.146 µM [falling, full curve, poor fit]
3 | Cc1cc(C)c(S(C)(=O)=O)c(N(C)N)n1 | -30.5% | 0.00461 µM [falling, full curve, poor fit] | –
4 | CCOC(=O)c1c(C)[nH]c(C)c1S(=O)(=O)NCc1ccccc1C | 19.1% | – | –
5 | COc1cccc(N2CCN(C3CC(=O)N(c4ccc(C)c(Cl)c4)C3=O)CC2)c1 (stereo not given) | -8.95% | – | –
6 | Cc1cc(C)c(C#N)c(SCc2cn3ccccc3n2)n1 | 1.99% | 23.1 µM [rising, partial curve] | –
7 | COc1ccc(C(=O)N2CCN(S(=O)(=O)N3CCOCC3)CC2)cc1OC | 5.4% | 6.51 µM [falling, single point] | 6.51 µM [falling, single point]
8 | Cn1c(SCC(=O)Nc2cccc(F)c2)nnc1-c1cc2ccccc2o1 | -16.8% | 1.84 µM [falling, partial curve] | 0.0116 µM [falling, full curve, poor fit]
9 | COc1ccc(-c2cc(=O)oc3cc(OC(C)C(=O)NCCCn4ccnc4)ccc23)cc1 (stereo not given) | 19.1% | – | 3.26 µM [rising, single point]
10 | COc1cccc(C(=O)Nc2cccc(NC(=O)c3cccs3)c2)c1 | -28.7% | 6.51 µM [rising, single point] | –
11 | COc1ccccc1NC(=O)CCCc1c[nH]c2ccccc12 | 6.4% | 20.6 µM [rising, single point] | –
12 | O=C(Nc1sc2c(c1C(=O)O)CCC2)c1cccs1 | 32.7% | – | 4.61 µM [rising, single point]
13 | O=C(NN=C1CCCC1)c1cc(O)cc(O)c1 | 9.38% | – | –
14 | Cc1ccc(NC(=O)c2ccc(C(C)(C)C)cc2)cc1[N+](=O)[O-] | 6.99% | 3.66 µM [rising, partial curve] | –
15 | CCN1C(=O)/C(=C2/Sc3ccccc3N2CC)SC1=S | -7.92% | 8.2 µM [falling, partial curve] | –
16 | CC1CN(C(=O)c2ccc(OC3CCN(Cc4ccccn4)CC3)cc2)CCN1C (stereo not given) | -15.3% | – | –
17 | COc1ccc(/C=N\n2nnc3ccccc32)cc1 | -7.03% | 1.84 µM [rising, partial curve] | –
18 | COc1ccccc1NC(=O)CSc1nc(O)cc(=O)n1C | 10.3% | – | –
19 | O=C(O)c1cn(-c2ccc(F)cc2)c2cc(Cl)c(F)cc2c1=O | 18% | 8.2 µM [rising, partial curve] | –

2 entries from above, field by field.
COc1cccc(N2CCN(C3CC(=O)N(c4ccc(C)c(Cl)c4)C3=O)CC2)c1 (stereo not given)
  cell number change: -8.95%
COc1cccc(C(=O)Nc2cccc(NC(=O)c3cccs3)c2)c1
  cell number change: -28.7%
  AC50 [1]: 6.51 µM [rising, single point]
